These are yes or no findings as the source states them, for the method shown. Binding seen in cells or lysates may run through a third protein. Some binding calls cover weakened binding; strength is not graded here. Where a sequence is shown, tags or fusion partners need not be part of it. Blank lines part the entries; values can stand above or below the molecule they belong to.
Target: T1, HA-tagged catalytic mutant SPP D265A (signal peptide peptidase) (human) (UniProt Q8TCT9)
T1 sequence: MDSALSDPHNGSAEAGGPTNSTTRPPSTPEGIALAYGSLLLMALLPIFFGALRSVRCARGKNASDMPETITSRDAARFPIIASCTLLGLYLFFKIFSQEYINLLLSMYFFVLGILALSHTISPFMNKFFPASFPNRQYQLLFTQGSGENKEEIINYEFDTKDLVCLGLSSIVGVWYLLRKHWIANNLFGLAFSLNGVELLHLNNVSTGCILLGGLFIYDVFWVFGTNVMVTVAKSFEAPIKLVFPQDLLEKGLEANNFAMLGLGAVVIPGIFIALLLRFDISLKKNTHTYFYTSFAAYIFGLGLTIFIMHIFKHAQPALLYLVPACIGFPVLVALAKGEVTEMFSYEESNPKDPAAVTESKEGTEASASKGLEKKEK
Assay: co-IP

Sequences of proteins named here, by UniProt entry; tags and fusion partners are left off. A change or cut given only in a name is not applied to a line headed by its entry.
UniProt Q07065, whole entry: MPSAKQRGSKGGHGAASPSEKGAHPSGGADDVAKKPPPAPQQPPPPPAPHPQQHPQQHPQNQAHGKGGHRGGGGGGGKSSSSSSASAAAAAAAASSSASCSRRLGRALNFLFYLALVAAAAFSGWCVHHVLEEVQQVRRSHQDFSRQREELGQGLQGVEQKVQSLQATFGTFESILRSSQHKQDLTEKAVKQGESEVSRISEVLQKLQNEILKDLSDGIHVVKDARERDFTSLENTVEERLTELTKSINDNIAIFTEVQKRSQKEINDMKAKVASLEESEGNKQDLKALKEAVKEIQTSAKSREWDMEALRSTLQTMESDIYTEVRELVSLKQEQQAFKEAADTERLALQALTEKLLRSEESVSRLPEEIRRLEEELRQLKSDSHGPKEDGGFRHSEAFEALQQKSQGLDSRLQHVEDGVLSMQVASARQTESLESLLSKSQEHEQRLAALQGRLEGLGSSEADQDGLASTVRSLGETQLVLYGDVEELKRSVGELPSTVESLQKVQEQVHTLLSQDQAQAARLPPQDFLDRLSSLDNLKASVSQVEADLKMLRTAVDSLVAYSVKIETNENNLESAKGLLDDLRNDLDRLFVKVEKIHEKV

binding: no binding
Molecule: CLIMP63, endogenous ER protein (from UniProt Q07065 1-602)

binding: binds
B1: squalene synthase (SQS), endogenous (enzyme, UniProt P37268 1-417)
chain: MEFVKCLGHPEEFYNLVRFRIGGKRKVMPKMDQDSLSSSLKTCYKYLNQTSRSFAAVIQALDGEMRNAVCIFYLVLRALDTLEDDMTISVEKKVPLLHNFHSFLYQPDWRFMESKEKDRQVLEDFPTISLEFRNLAEKYQTVIADICRRMGIGMAEFLDKHVTSEQEWDKYCHYVAGLVGIGLSRLFSASEFEDPLVGEDTERANSMGLFLQKTNIIRDYLEDQQGGREFWPQEVWSRYVKKLGDFAKPENIDLAVQCLNELITNALHHIPDVITYLSRLRNQSVFNFCAIPQVMAIATLAACYNNQQVFKGAVKIRKGQAVTLMMDATNMPAVKAIIYQYMEEIYHRIPDSDPSSSKTRQIISTIRTQNLPNCQLISRSHYSPIYLSFVMLLAALSWQYLTTLSQVTEDYVQTGEH
